Two compounds from patent publication US20240173419A1, “CDK2 DEGRADERS AND USES THEREOF” (Kymera Therapeutics, Inc., priority 2022, published 2024) can be followed below.

The target in this assay is CDK2 (Homo sapiens, UniProt P24941). Briefly: CDK2 degradation in MKN1 cells (AlphaLISA). The note with it: for DC50: read-out: CDK2 degradation 14 h: Mean external-Abs DC50, 14 h incubation. Here is the method:
Degradation of CDK2 in MKN1 cells was measured using AlphaLISA technology (PerkinElmer ALSU-TCDK2-A10K). MKN1 cells were maintained in RPMI1640 medium containing 10% FBS+1× penn/strep. Cells were seeded in 96-well plates (Corning 3599) at a density of 2e4 cells per well in 80 μL of fresh complete growth medium. Cells were incubated overnight at 37° C., 5% CO2. Compounds were then added to the cell assay plates with a final top concentration of 10 μM in a 1:5 dilution series with a total of 11 doses (0.001 nM-10 μM). The final volume per well was 160 μL and the final DMSO concentration was 0.1%. Additionally, wells containing no cells and only complete growth medium were also maintained on the cell assay plates (‘no cell’ wells) and processed along with experimental wells. After 14 hour-incubation at 37° C., 5% CO2, the medium was removed and the cells were washed once with 100 μL of 1×PBS. Following removal of PBS, 40 μL of 1× Lysis Buffer containing 1× protease and phosphatase inhibitors (Roche 4693116001; Roche 4906837001) were added to each well. The cell assay plate was agitated on a plate shaker at 350 rpm for 10 minutes at room temperature. 10 μL of each cell lysate were transferred to a 384-well plate (PerkinElmer 6007290). 10 μL of control lysates (from PerkinElmer ALSU-TCDK2-A10K kit) were added to separate wells to generate a standard curve. Activation Buffer was prepared by diluting 25-fold in combined Reaction Buffer 1 and Reaction Buffer 2. Acceptor Beads were diluted 50-fold in combined Reaction Buffers. 5 μL of Acceptor Mix were added to each well. The plate was sealed with Topseal-Aadhesive film, covered with foil, and incubated in the dark for 1 hour at room temperature. Under subdued light, the Donor Beads were diluted 50-fold in Dilution Buffer. […] Under subdued light, the plates were analyzed on an EnVision Microplate Reader (PerkinElmer Model 2009-0030). […] The data were analyzed using Xlfit (v5.3. 1.3) and the dose-dependent CDK2 degradation data were fit using a four-parameter logistic model to calculate DC50.
(In Alpha technology, singlet oxygen from a donor bead excites a nearby acceptor bead.)

Structures were worked out from names or drawings and are uncertain.

As for `Cc1cc(S(=O)(=O)C2CCN(CCC3CCN(c4cccc5c4n(C)c(=O)n5C4CCC(=O)NC4=O)CC3)CC2)ccc1Nc1ncc(C(F)(F)F)c(-c2cnn(C)c2)n1` (stereo not drawn), the DC50 is less than 100 nM.
As to `Cc1cc(S(=O)(=O)C2CCN(CCC3CCN(c4cccc5c4n(C)c(=O)n5C4CCC(=O)NC4=O)CC3)CC2)ccc1Nc1ncc2cc(Cl)c(=O)n(C3CCCC3)c2n1` (stereo not drawn), the DC50 is less than 100 nM. Also, the “CDK2 degradation 14 h: Average Dmax %” value (14 h incubation) is given as “A (A (>75% o))”.

As a reminder, the DC50 is the midpoint of the concentration-degradation curve.
